Measurements published in the supplement of paper PMC4749390.
Counter-ions that a name gives are not always drawn. The list shows a part of the results. Repeats in this data set agree poorly, so a single value says little.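 JEG3 cells stably express tetracycline-inducible wild-type human LRH-1, a highly sumoylated nuclear receptor. SUMO-sensitive transcripts APOC3 and MUC1, increased by SUMO-deficient LRH-1 or UBC9 knockdown, were quantified by RT-qPCR relative to TBP and DMSO controls. Primary hits had robust Z-scores above +2 or below -2, before toxicity and TBP filtering.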

Test system: JEG3 expressing hLRH-1
Test: APOC3 transcript change (ddCt vs TBP and DMSO), Z-score over library; higher = higher APOC3 expression
Settings: 10 µM; time (hr): 24

| SMILES | APOC3 transcript change (Z-score) |
| --- | --- |
| CC(C)/N=c1\cc2n(-c3ccc(Cl)cc3)c3ccccc3nc-2cc1Nc1ccc(Cl)cc1 [clofazimine] | 0.215 |
| Cc1nc(-c2ccc(OCC(C)C)c(C#N)c2)sc1C(=O)O [febuxostat] | -0.0582 |
| CC1(O)CCC(C(C)(C)O)CC1 (stereo not given) [terpene hydrate] | 0.00973 |
| NC(=O)c1cccnc1 [niacinamide] | -1.23 |
| Nc1nccs1 [aminothiazole] | 1.06 |
| C/N=C(/NC#N)NCCSCc1[nH]cnc1C [Cimetidine] | -0.144 |
| Cc1ccc(C(=O)c2ccc(CC(=O)O)n2C)cc1 [tolmetin sodium] | -0.547 |
| C[C@@H]1CC2C3C[C@H](F)C4=CC(=O)C=C[C@]4(C)[C@@]3(F)[C@@H](O)C[C@]2(C)[C@@]1(O)C(=O)COC(=O)C(C)(C)C (stereo not given in full) [flumethazone pivalate] | 0.386 |
| CCCCCCCCCCCCCCCC[N+](C)(C)C [cetrimonium bromide] | -0.0801 |
| N=C(N)NCCN1CCCCCCC1 [guanethidine sulfate] | 0.306 |
| CN(C)c1ccc(O)c2c1C[C@H]1C[C@H]3[C@H](N(C)C)C(=O)C(C(N)=O)=C(O)[C@@]3(O)C(=O)C1=C2O [minocycline hydrochloride] | -0.31 |
| CC1=C(C(=O)O)N2C(=O)[C@@H](NC(=O)[C@H](N)c3ccc(O)cc3)[C@H]2SC1 [cefadroxil] | 1.64 |
| COC(=O)C1=C(C)N=C(C)/C(=C(/O)OC)C1c1ccccc1[N+](=O)[O-] (stereo not given) [Nifedipine] | -0.971 |
| C=C[C@H]1CN2CC[C@H]1C[C@@H]2[C@@H](O)c1ccnc2ccc(OC)cc12 [quinidine gluconate] | 0.306 |
| CC1=C(/C=C/C(C)=C/C=C/C(C)=C/CO)C(C)(C)CCC1 [retinol] | 1.43 |
| CCc1cc(C(N)=S)ccn1 [ethionamide] | 0.0359 |
| CC(=O)CCCCn1c(=O)c2c(ncn2C)n(C)c1=O [Pentoxifylline] | 0.026 |
| NS(=O)(=O)c1cc2c(cc1Cl)NC(C(Cl)Cl)NS2(=O)=O (stereo not given) [trichlormethiazide] | -0.153 |
| O=C(O)[C@H](O)[C@@H](O)[C@H](O)[C@H](O)CO [sodium gluconate] | -1.13 |
| CC[C@]12CCCN3CCc4c(n(c5ccccc45)[C@@](O)(C(=O)OC)C1)[C@@H]32 [vincamine] | 0.0854 |

| SMILES | APOC3 transcript change (Z-score) |
| --- | --- |
| CC(=O)OCC1=C(C(=O)O)N2C(=O)[C@@H](NC(=O)CSc3ccncc3)[C@H]2SC1 [cephapirin sodium] | 1.45 |
| CCC(C)(C)c1ccc(CC(C)CN2C[C@@H](C)O[C@@H](C)C2)cc1 (stereo not given in full) [amorolfine hydrochloride] | 0.193 |
| O=C1Cc2cc(CCN3CCN(c4nsc5ccccc45)CC3)c(Cl)cc2N1 [ziprasidone mesylate] | 1.1 |
| O=C(CCCN1CCC(O)(c2ccc(Br)cc2)CC1)c1ccc(F)cc1 [bromperidol] | 0.633 |
| Cc1cn([C@H]2C=C[C@@H](CO)O2)c(=O)[nH]c1=O [stavudine] | 0.356 |
| CCc1nn(CCCN2CCN(c3cccc(Cl)c3)CC2)c(=O)n1CCOc1ccccc1 [nefazodone hydrochloride] | -0.326 |
| Clc1ccccc1C(c1ccccc1)(c1ccccc1)n1ccnc1 [clotrimazole] | 0.448 |
| CC(=O)Oc1cc(C(C)C)c(OCCN(C)C)cc1C [moxisylyte hydrochoride] | -0.975 |
| Nc1ccn(C2CSC(CO)O2)c(=O)n1 (stereo not given) [lamivudine] | 4.21 |
| CCCCOc1ccc(CC(=O)NO)cc1 [bufexamac] | 1.16 |
| COc1ccc2c(c1)c(CC(=O)O)c(C)n2C(=O)c1ccc(Cl)cc1 [Indomethacin] | 0.0726 |
| COc1ccnc(CS(=O)c2nc3cc(OC(F)F)ccc3[nH]2)c1OC (stereo not given) [pantoprazole] | 1.1 |
| COc1ccccc1OCC(O)COC(N)=O (stereo not given) [methocarbamol] | -0.165 |
| CC1(C)O[C@@H]2[C@@H](CO[C@@]3(COS(N)(=O)=O)OC(C)(C)O[C@@H]23)O1 [topiramate] | -0.499 |
| C[N+](C)(C)CCOP(=O)([O-])OP(=O)(O)OC[C@H]1O[C@@H](n2ccc(N)nc2=O)[C@H](O)[C@@H]1O [citicoline] | 0.201 |
| CC(C)CCC[C@@H](C)[C@H]1CC[C@H]2[C@@H]3CC=C4C[C@@H](O)CC[C@]4(C)[C@H]3CC[C@]12C [cholesterol] | 0.225 |
| O=C(O)CCc1nc2ccccc2[nH]1 [procodazole] | -0.315 |
| CC(=O)OCC(=O)[C@@]1(O)CCC2C3CCC4=CC(=O)CC[C@]4(C)C3[C@@H](O)C[C@@]21C (stereo not given in full) [hydrocortisone acetate] | -0.0625 |
| CCN(CC)C(=O)N1CCN(C)CC1 [diethylcarbamazine citrate] | -0.411 |
| Nc1ccc(N=Nc2ccccc2)c(N)n1 [phenazopyridine hydrochloride] | 0.775 |

Two compounds drawn at random from the list so far:

| SMILES | APOC3 transcript change (Z-score) |
| --- | --- |
| CC1(C)O[C@@H]2[C@@H](CO[C@@]3(COS(N)(=O)=O)OC(C)(C)O[C@@H]23)O1 [topiramate] | -0.499 |
| COc1ccnc(CS(=O)c2nc3cc(OC(F)F)ccc3[nH]2)c1OC (stereo not given) [pantoprazole] | 1.1 |
